In article PMC9242963:
For some assays here: A negative result means that nothing was seen under these conditions. The exact form of at least one protein or probe is not confirmed. The comparison behind a weaker result is the experiment's own reference, which may not be listed here. For some assays here: At least one verdict was read from the data and is not stated in words by the source.

Legend:
[1] = target: bovine serum albumin (BSA) (UniProt P02769); experiment: AF4-UV (asymmetrical flow field-flow fractionation); conditions: PBS-Mg2+ buffer (also mobile phase), 10 uL of 5 uM aptamer + 10 uL of 5, 10, 25 or 50 uM protein (1:1 to 1:10), commercial protein, single-stranded DNA
[2] = target: lysozyme (UniProt P00698); experiment: as above; conditions: PBS-Mg2+ buffer (also mobile phase), 10 uL of 5 uM aptamer + 10 uL of 5, 10, 25 or 50 uM protein (1:1 to 1:10), commercial protein, single-stranded DNA
[3] = general sentence: much lower affinity than for lysozyme, below A40

Sequence | binding result [1, 3] | other results
AGCAGCACAGAGGTCAGATGACTATGTCGGCCGCAATGCCCAGAGGCCACATACAAGCGGCCTATGCGTGCTACCGTGAA [A80R] | binds more weakly | binding signal ([2]; 5 uM aptamer, 50 uM lysozyme as stated, complex only at high molar excess): 20 % bound
AGCAGCACAGAGGTCAGATGGCAGCTAAGCAGGCGGCTCACAAAACCATTCGCATGCGGCCCTATGCGTGCTACCGTGAA [A80] | – | binding result ([1]; not interacting at the concentrations explored (5 uM aptamer, up to 1:10)): no binding
ATCAGGGCTAAAGAGTGCAGAGTTACTTAG [C30] | binds more weakly | –
GCAGCTAAGCAGGCGGCTCACAAAACCATTCGCATGCGGC [A40] | – | binding signal ([1]; maximum bound fraction, most interfered aptamer): 35 % bound
GGGAATGGATCCACATCTACGAATTCAAGTGGATTAACTGTGTAGACCGATAGACGTTCACTGCAGACTTGACGAAGCTT [C80R] | binds more weakly | binding result ([2]; interaction at high molar ratios, ascribed to non-specific electrostatics): binds more weakly
GGGAATGGATCCACATCTACGAATTCATCAGGGCTAAAGAGTGCAGAGTTACTTAGTTCACTGCAGACTTGACGAAGCTT [C80] | binds more weakly | –
